Results published in doi:10.1101/2020.07.25.220095.
Results are given in words; binding and its absence hold for the method and conditions named. In cells and extracts the contact can be indirect. Some binding calls cover weakened binding; strength is not graded here. Tags and fused reporters may be left off the sequences shown.

Columns and labels:
Assay in all cases: pull-down
[1] = target: T1, Puf3-TAP (S. cerevisiae (TAP-tagged yeast strain)) (UniProt Q07807)
T1 sequence: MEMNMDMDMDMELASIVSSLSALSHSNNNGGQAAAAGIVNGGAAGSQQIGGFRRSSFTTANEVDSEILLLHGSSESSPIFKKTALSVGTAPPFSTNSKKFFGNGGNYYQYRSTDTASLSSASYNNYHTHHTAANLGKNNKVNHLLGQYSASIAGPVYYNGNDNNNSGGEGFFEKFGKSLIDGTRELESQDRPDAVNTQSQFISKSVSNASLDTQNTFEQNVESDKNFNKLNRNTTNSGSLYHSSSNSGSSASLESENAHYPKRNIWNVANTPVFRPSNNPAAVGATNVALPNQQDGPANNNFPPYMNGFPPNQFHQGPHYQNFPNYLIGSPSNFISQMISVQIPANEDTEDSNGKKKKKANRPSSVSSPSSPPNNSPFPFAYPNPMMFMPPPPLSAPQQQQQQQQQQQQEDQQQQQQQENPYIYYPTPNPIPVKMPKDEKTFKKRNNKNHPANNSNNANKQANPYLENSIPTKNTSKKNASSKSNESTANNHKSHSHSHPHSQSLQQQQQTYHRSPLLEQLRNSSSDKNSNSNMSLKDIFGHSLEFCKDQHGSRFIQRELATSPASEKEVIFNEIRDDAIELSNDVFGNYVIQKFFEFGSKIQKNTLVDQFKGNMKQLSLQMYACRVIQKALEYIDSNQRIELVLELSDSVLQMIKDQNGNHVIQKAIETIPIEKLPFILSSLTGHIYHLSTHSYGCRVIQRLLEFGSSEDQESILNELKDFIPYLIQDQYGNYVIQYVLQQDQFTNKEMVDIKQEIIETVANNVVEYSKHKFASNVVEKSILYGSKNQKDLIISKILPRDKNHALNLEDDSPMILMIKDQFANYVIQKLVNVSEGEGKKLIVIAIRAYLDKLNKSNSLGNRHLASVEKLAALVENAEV

[2] = target: T2, Vts1 (TAP-tagged version) (S. cerevisiae (TAP-tagged yeast strain)) (UniProt Q08831)
T2 sequence: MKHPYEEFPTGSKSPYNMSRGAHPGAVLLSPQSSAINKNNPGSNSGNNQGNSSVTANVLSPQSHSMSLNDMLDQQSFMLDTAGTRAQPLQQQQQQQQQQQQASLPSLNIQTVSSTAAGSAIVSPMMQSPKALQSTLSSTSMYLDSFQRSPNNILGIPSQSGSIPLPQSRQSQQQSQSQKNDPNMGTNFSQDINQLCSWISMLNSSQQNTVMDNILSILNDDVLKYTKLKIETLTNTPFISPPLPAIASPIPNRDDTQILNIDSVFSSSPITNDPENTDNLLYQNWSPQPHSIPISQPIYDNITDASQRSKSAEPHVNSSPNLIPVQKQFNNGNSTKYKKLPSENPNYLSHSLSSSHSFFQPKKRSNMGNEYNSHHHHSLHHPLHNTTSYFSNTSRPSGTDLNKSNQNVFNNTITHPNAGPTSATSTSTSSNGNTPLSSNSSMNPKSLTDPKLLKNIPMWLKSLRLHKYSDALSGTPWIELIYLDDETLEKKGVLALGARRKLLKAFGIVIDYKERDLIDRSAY

[3] = target: T3, Nsr1 (TAP-tagged version) (S. cerevisiae (TAP-tagged yeast strain)) (UniProt P27476)
T3 sequence: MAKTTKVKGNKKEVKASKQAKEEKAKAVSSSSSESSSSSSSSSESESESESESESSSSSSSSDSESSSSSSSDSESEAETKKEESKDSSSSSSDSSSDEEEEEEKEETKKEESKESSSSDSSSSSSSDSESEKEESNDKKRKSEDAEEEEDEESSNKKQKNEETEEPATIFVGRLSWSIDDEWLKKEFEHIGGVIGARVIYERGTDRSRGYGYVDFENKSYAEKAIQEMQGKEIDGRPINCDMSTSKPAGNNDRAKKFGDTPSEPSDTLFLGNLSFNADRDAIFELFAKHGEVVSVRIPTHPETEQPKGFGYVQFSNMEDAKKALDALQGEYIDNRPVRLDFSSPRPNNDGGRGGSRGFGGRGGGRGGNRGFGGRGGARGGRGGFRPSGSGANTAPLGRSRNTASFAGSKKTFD

B1: Rpb4 (protein, UniProt P20433 1-221)
chain: MNVSTSTFQTRRRRLKKVEEEENAATLQLGQEFQLKQINHQGEEEELIALNLSEARLVIKEALVERRRAFKRSQKKHKKKHLKHENANDETTAVEDEDDDLDEDDVNADDDDFMHSETREKELESIDVLLEQTTGGNNKDLKNTMQYLTNFSRFRDQETVGAVIQLLKSTGLHPFEVAQLGSLACDTADEAKTLIPSLNNKISDDELERILKELSNLETLY
- binding [1]: binds weakly
- binding [2]: no binding
- binding [3]: binds weakly
